From PubChem BioAssay AID1259415 (National Center for Advancing Translational Sciences (NCATS), 2018)
Out of some 410,000 compounds screened, about 18,000 (4.4%) were called active. The shares of active, inactive and inconclusive entries below differ from those in the screen. Rule as the data show it: active = activity change below about -60%; inconclusive = no clear call, values can overlap the other calls; inactive = above about -39%.

assay: qHTS Assay for inhibitors of the human cytomegalovirus (HCMV); settings: HFF cells, HCMV-luciferase reporter, 72 h; at 57.5 µM; hits give low values
From the text: NCGC Assay Overview: Infection with human cytomegalovirus (HCMV) continues to pose significant threats for pregnant women and immunocompromised hosts. HCMV causes serious morbidity and mortality in transplant recipients, and congenital HCMV is the leading infectious cause of mental retardation and deafness in children. In the 1990s, the annual costs associated with the disease burden of congenital CMV were estimated at around $2 billion. A HCMV vaccine is not available yet and HCMV therapies result in intolerable side effects and emergence of drug resistant viruses. […] Towards this goal we have developed and characterized a luciferase HCMV reporter that was initially used in 96 well plates and then optimized to 1536-well plates for utilization in screening of the MLSMR collection, the NGCG diversity collection and the NCGC Pharmaceutical Collection of approved and investigational drugs.
NCGC Assay Protocol Summary:
This is a cell-based assay for HCMV inhibition in HFFs cells. The screening used 2 compound doses and the HCMV-luciferase at MOI of 1 PFU/cell. Cells were treated and infected with HCMV. At 72 h post infection cell lysates were collected and luciferase activity was determined using the Glomax-Multi + Detection System (Promega, Madison, WI). Data were normalized to the controls for basal activity (buffer only) and known HCMV inhibitors Salinmoycin.
1536-well assay protocol for the assay:
(1) Add 3 ul CMV/HFF cell culture. 1000 cells/well in DMEM nirmal media.
(2) Incubate 16 hr at 37C.
(3) Add 23 nl control compound, 10uM of Salinomycin.
(4) Add 23 nl compounds in DMSO solution.
(5) Add 3 ul CMV suspension. Final 1 puf/ul, Virus stock 2000pfu/ul
(6) Incubate 72 hrs at 37C.
(7) Add 4 ul OneGlo Luc Reagent.
(8) Incubate 5 min at room temperature.
% is scaled to controls: 0 for no effect and ±100 for the full control effect.

SMILES	activity change, negative = inhibition
CCOC(=O)C1(Cc2ccc(Cl)cc2)CCN(Cc2ccon2)CC1	active: -65.6%
CC/C(=N/NC(=O)c1ccc2c(c1)OCO2)c1ccccc1O	active: -97.9%
C[C@H](NC(=O)c1[nH]cnc1C(=O)N[C@H](C)c1ccccc1)c1ccccc1	inconclusive: -50.1%
CCOc1ccc(-c2cc3nc(C4CCN(C(=O)OC(C)(C)C)CC4)c(C(=O)Nc4ccc(C)c(F)c4)cn3n2)cc1	active: -93.1%
O=C(Nc1ccccc1)O/N=C1/CCCc2occc21	inconclusive: -43.8%
CCN(CC)CC(=O)Nc1ccc(C)cc1Br	inconclusive: -47.6%
CN(C(=O)c1cc(COc2ccc(F)cc2Cl)on1)C1CCOC1 (stereo not drawn)	inconclusive: -50.6%
C/C(Cl)=C\Cn1c(N2CCCC2)nc2c1c(=O)n(C)c(=O)n2C	inconclusive: -59.1%
Cc1ccc(C(=O)Nc2ccc(CN3CCS(=O)(=O)CC3)cc2)cc1C	inconclusive: -41%
O=C(N/N=C/c1ccncc1)c1ccc(OCc2ccccc2)cc1	active: -61.6%
CNS(=O)(=O)c1cc(-c2nn3c(C)nnc3c3ccccc23)ccc1C	active: -61.9%
CCOC(=O)c1c(NC(=O)c2cc(-c3ccc(Cl)cc3)on2)sc2c1CCCC2	inactive: 3.67%
Cc1cc2c(cc1C)CSC(c1ccccc1O)SC2	inconclusive: -42.6%
Cc1oc2c(c1C(=O)N1CCC(C)CC1)C(=O)c1ccccc1C2=O	inconclusive: -47.5%
CC1(C)Cc2ccccc2-c2nc3ccccc3c(=O)n21	inconclusive: -43.4%
CCOc1ccc(-c2[nH]ncc2-c2ccc(OC)c(OC)c2)c(O)c1	inconclusive: -43.4%
CCn1cc(CNC(=O)c2cc(COc3ccc(F)cc3Cl)on2)cn1	inconclusive: -58.7%
CCOc1ccc(-c2ncncc2-c2ccc(OC)cc2)c(O)c1	inconclusive: -41.6%
COc1cccc(CNC(=O)c2ccc3c(c2)N(C)C(=O)C2CCCCN32)c1 (stereo not drawn)	inactive: -8.62%
COC(=O)c1[nH]c2c(c1C)C(=O)CC(c1cccc(OC)c1)C2 (stereo not drawn)	inconclusive: -53.3%
COc1ccc(NC(=S)N2CCC(c3nc4ccc(Cl)cc4[nH]3)CC2)c(OC)c1	inconclusive: -40.1%
O=C(NCC1=C(c2cccc3ccccc23)C[C@@H]2CC[C@H]1N2Cc1ccco1)c1cccs1	inconclusive: -40.5%

SMILES	activity change, negative = inhibition
CCOc1ccccc1NC(=O)c1cc2cc(C)ccc2n1C	inactive: 23.2%
O=C(Nc1ccccc1SCC1CSc2nc3ccccc3c(=O)n21)c1cccc(Cl)c1 (stereo not drawn)	active: -95.5%
CCc1ccc(CN(C)C(=O)c2cc(S(=O)(=O)N3CCN(CC)CC3)ccc2Cl)cc1	inconclusive: -47.8%
Cc1ccc(NC(=O)Nc2nc3ccccc3s2)cc1NC(=O)Nc1nc2ccccc2s1	active: -74.3%
CCOC(=O)C1CCN(C(=O)COC(=O)CSc2ccc([N+](=O)[O-])cc2)CC1	inactive: -18.1%
O=C1NC(CCc2ccccc2)C(=O)N1CCOc1cccc(Br)c1 (stereo not drawn)	inconclusive: -41.5%
COc1cccc2sc(Nc3nc(-c4cc5ccccc5oc4=O)cs3)nc12	inconclusive: -47.9%
COCCN(C(=O)c1csnn1)C(C(=O)NC1CCCCC1)c1ccc(Cl)cc1 (stereo not drawn)	active: -99.2%
O=C(CCC1CCCCC1)Nc1ccc(C(=O)c2ccncc2)cc1	inconclusive: -50.2%
Cc1cccc(C)c1OCc1cc(C(=O)NCC2COCCO2)no1 (stereo not drawn)	inactive: 49.6%
CS(=O)(=O)c1nc(S(=O)(=O)c2ccc(Cl)cc2)c(N2CCOCC2)s1	inconclusive: -54.2%
CCOc1ccccc1NC(=O)Cc1csc(COc2cccc(C)c2)n1	inconclusive: -49.9%
Cc1c(N2C(=O)C3C4C=CC(C4)C3C2=O)c(=O)n(-c2ccccc2)n1C (stereo not drawn)	inactive: -20.5%
O=C1NC(=O)/C(=C/c2ccc(-c3cc(C(=O)O)ccc3Cl)o2)S1	inactive: -10.9%
CCN(CC)CCNCC1C(=O)O[C@@H]2C[C@@]3(C)CCC[C@H](C)C3=C[C@H]12 (stereo partly drawn)	inconclusive: -59.1%
CC(=O)OCCN1c2ccccc2Sc2cnccc21	inconclusive: -55.9%
Cc1ccc(-c2nnc(Nc3ccc4c(c3)OCO4)c3ccccc23)cc1S(=O)(=O)NC(C)C	active: -92.3%
CC[C@@H]1C=C(C(=O)O)[C@H](c2cccc(C)c2)N1S(=O)(=O)c1ccc(C)cc1	inactive: 26.7%
N=c1n(CCO)c2ccccc2n1Cc1ccccc1	inconclusive: -41.7%
C/C(CC(=O)Nc1ccccc1F)=N\NC(=O)Cc1ccc(Cl)cc1	inactive: -28.1%
CC(=O)Nc1cccc(-c2ccnc3c2CC(C)(C(=O)Nc2ccccc2)O3)c1 (stereo not drawn)	inconclusive: -50.3%

As a short view, some entries already given:
SMILES	activity change, negative = inhibition
Cc1ccc(NC(=O)Nc2nc3ccccc3s2)cc1NC(=O)Nc1nc2ccccc2s1	active: -74.3%
CCOC(=O)C1CCN(C(=O)COC(=O)CSc2ccc([N+](=O)[O-])cc2)CC1	inactive: -18.1%
O=C1NC(CCc2ccccc2)C(=O)N1CCOc1cccc(Br)c1 (stereo not drawn)	inconclusive: -41.5%
